Source: US5612174A, “Photographic yellow dye-forming couplers and silver halide color photographic materials containing the same” (Fuji Photo Film Co., Ltd., priority 1994, dated 1997)

How the values were obtained:
[1] = Color image fastness to heat and moisture at 80° C., 70% RH (retentiveness of color image at initial density 1.5); details: 20 days
Procedure: (§1) Samples Nos. 401 to 429 were prepared in the same manner as in preparation of sample No. 204, except that 0.20 g/m^2 of the amide compound shown in Table C below was added to the first layer. These samples were exposed to light of a fluorescent lamp of 80,000 luxes for 14 days, and the retentiveness of the color image at the initial density of 1.5 in each sample was obtained. In addition, the samples were stored at 80° C. and 70% RH for 20 days, and the retentiveness of the color image at the initial density of 1.5 in each sample was also obtained.

[2] = Color image fastness to light (retentiveness of color image at initial density 1.5); details: fluorescent lamp 80,000 luxes, 14 days
Procedure: as §1

[3] = no amide compound, 80° C., 70% RH
[4] = amide compound S-1 (0.20 g/m^2)
[5] = amide compound S-2 (0.20 g/m^2)
[6] = amide compound S-4 (0.20 g/m^2)
[7] = amide compound S-5 (0.20 g/m^2)
[8] = amide compound S-9 (0.20 g/m^2)
[9] = amide compound S-18 (0.20 g/m^2)

SMILES | retentiveness of the color image, 80° C., 70% RH [1, 3] | retentiveness of the color image, Xe ([2]; no amide compound) | retentiveness of the color image, 80° C., 70% RH [1, 4] | retentiveness of the color image, 80° C., 70% RH [1, 5] | retentiveness of the color image, 80° C., 70% RH [1, 6] | retentiveness of the color image, 80° C., 70% RH [1, 7] | retentiveness of the color image, 80° C., 70% RH [1, 8] | retentiveness of the color image, 80° C., 70% RH [1, 9] | retentiveness of the color image, Xe [2, 4] | retentiveness of the color image, Xe [2, 5] | retentiveness of the color image, Xe [2, 6] | retentiveness of the color image, Xe [2, 7] | retentiveness of the color image, Xe [2, 8] | retentiveness of the color image, Xe [2, 9]
CCCCCCCCCCCCCCCCCC(=O)Nc1ccc(Cl)c(NC(=O)C(C(=O)C(C)(C)C)N2C(=O)NC(C)(C)C2=O)c1 (stereo not shown) [RY-2, reference compound] | 67 | 65 | – | – | – | – | – | – | – | – | – | – | – | –
CCCCCCCCC=CCCCCCCCC(=O)Nc1ccc(Cl)c(NC(=O)C(C(=O)C(C)(C)C)N2C(=O)NC(C)(C)C2=O)c1 (stereo not shown) [Y-1] | 77 | 75 | 89 | 86 | 88 | 86 | 85 | 84 | 88 | 85 | 87 | 85 | 84 | 83
CCCCCC=CCC=CCCCCCCCC(=O)Nc1ccc(Cl)c(NC(=O)C(C(=O)C(C)(C)C)N2C(=O)NC(C)(C)C2=O)c1 (stereo not shown) [Y-2] | 76 | 74 | 87 | – | 87 | – | – | – | 87 | – | 86 | – | – | –
CCC=CCC=CCC=CCCCCCCCC(=O)Nc1ccc(Cl)c(NC(=O)C(C(=O)C(C)(C)C)N2C(=O)NC(C)(C)C2=O)c1 (stereo not shown) [Y-3] | 75 | 74 | 86 | – | 85 | – | – | – | 87 | – | 86 | – | – | –
CCCCCCC(O)CC=CCCCCCCCC(=O)Nc1ccc(Cl)c(NC(=O)C(C(=O)C(C)(C)C)N2C(=O)NC(C)(C)C2=O)c1 (stereo not shown) [Y-4] | 75 | 73 | 87 | – | 86 | – | – | – | 86 | – | 85 | – | – | –
CCCCCCCCC=CCCCCCCCC(=O)Nc1ccc(OC)c(NC(=O)C(C(=O)C(C)(C)C)N2C(=O)NC(C)(C)C2=O)c1 (stereo not shown) [Y-13] | 76 | 75 | 85 | – | 84 | – | – | – | 86 | – | 85 | – | – | –
